# Only a part is listed here, and it is no random draw. For some assays here: At the low end of the ranking the order means little. Some of the results follow. For some assays here: Construct or isoform of the protein are uncertain.
# Chains of the proteins cited; added tags and fusions are not shown. Lines headed by an entry give the natural chain unless they say otherwise; changes in a name come on top.
# UniProt P50549: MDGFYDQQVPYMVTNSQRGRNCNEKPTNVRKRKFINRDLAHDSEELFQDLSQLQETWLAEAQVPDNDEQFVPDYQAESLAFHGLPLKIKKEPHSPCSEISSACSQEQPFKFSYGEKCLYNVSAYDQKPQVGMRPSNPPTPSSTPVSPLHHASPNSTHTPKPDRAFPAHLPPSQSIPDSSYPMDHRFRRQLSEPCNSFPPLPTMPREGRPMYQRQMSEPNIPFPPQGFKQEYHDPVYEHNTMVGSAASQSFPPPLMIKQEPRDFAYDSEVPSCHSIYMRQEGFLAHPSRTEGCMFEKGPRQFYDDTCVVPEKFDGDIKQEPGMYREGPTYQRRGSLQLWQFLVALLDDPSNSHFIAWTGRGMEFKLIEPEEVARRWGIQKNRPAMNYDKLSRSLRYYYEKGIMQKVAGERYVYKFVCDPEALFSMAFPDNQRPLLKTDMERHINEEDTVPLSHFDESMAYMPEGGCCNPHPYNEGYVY
# UniProt P32519: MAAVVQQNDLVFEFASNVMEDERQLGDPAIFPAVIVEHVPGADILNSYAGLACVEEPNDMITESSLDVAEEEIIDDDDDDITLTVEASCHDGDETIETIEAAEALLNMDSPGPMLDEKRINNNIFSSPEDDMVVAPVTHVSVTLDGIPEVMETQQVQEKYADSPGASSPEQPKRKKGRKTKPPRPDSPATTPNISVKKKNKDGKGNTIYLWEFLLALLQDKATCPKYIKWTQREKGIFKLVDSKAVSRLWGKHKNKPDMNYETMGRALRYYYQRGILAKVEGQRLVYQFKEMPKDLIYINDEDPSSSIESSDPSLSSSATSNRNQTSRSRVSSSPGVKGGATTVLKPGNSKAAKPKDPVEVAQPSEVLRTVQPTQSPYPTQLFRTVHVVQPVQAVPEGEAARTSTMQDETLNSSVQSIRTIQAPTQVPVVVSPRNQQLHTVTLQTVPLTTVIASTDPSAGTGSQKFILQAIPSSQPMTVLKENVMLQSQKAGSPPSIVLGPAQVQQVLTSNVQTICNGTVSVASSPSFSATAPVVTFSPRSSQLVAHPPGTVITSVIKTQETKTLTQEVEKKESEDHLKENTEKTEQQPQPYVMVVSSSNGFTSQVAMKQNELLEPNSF
# Assays:
# Test in all cases: DAPPL (digital affinity profiling via proximity ligation, sequencing)
# Details in all cases: 10 mM Tris-HCl pH 7.5, 50 mM NaCl, 1 mM DTT, 4% glycerol, room temperature, 30 min; GST-TFs on glutathione beads, 16-mer random dsDNA library, 0.1% …; high values mean tight binding; double strand, one strand shown; scale: fold enrichment (6-mer frequency, TF over GST control)
# [1] = target: T1, ELK4 (UniProt P28324-2)
# T1 sequence: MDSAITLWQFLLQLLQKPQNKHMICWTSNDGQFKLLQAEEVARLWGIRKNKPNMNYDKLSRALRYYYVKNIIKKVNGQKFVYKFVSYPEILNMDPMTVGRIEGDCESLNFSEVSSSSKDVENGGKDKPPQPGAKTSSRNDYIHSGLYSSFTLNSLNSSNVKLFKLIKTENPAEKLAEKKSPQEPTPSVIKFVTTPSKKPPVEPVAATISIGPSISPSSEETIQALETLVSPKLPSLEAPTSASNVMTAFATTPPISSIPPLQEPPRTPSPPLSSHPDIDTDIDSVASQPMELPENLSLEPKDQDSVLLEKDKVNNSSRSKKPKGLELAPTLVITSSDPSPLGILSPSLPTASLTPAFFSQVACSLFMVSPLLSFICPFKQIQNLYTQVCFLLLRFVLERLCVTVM
# [2] = target: T2, ETV4 (UniProt P43268)
# T2 sequence: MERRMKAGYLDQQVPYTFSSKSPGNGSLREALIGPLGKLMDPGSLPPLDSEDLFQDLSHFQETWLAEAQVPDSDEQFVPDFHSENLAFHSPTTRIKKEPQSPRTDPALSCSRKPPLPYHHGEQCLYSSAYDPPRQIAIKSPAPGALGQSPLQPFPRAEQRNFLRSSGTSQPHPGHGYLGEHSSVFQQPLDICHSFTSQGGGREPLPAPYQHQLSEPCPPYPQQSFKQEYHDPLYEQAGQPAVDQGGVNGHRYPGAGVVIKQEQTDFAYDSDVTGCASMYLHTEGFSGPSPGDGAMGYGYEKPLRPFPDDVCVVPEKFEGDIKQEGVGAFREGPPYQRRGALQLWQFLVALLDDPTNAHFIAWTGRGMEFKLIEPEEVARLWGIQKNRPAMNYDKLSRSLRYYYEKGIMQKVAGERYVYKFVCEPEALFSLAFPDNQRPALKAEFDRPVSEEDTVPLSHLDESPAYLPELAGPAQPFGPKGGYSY
# [3] = target: ETV1 (UniProt P50549)
# [4] = target: T3, ERF (UniProt P50548)
# T3 sequence: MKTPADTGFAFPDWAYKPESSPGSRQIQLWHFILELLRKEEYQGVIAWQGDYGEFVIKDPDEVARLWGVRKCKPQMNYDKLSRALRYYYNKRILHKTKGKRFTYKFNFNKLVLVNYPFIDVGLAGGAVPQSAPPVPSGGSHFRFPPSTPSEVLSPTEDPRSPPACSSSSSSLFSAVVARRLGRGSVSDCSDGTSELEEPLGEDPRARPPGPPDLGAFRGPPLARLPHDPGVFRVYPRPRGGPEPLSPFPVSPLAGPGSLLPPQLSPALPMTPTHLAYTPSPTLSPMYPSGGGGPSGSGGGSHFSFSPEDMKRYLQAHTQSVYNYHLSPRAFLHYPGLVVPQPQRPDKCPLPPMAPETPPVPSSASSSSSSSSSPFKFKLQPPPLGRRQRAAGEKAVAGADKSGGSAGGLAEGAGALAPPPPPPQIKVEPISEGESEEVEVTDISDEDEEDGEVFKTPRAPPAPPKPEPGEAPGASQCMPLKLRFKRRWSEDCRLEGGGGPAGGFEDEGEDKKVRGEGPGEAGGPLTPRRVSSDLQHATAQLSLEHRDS
# [5] = target: ELF1 (UniProt P32519)
Sequence,binding signal [1],binding signal [2],binding signal [3],binding signal [4],binding signal [5]
GGTTAT,0.989,1.04,0.989,0.904,–
AACAAG,1.01,1.04,1.13,1.19,–
AGACTT,0.986,1.06,0.973,1.02,–
TGTATT,1.33,1.42,1.4,1.36,–
GTTATG,1.23,1.18,1.14,1.05,–
CCATGG,0.991,1.01,0.967,0.999,–
CCAACA,1.08,1.09,1.04,–,–
AGTACA,1.07,1.14,1.11,1.06,–
TACAGA,1.1,1.1,1.16,–,–
GGATCT,0.856,1.06,1.03,0.949,0.962
CGGCTG,0.898,1.13,0.91,0.958,0.958
TCTAGG,0.997,1.07,0.953,–,–
AGAACC,0.898,0.894,0.931,0.933,0.913
CCGAAC,1.25,1.25,1.19,–,–
GGACTT,1.08,1.17,1.22,–,–
CATGGC,0.949,1.06,1,0.97,–
ATTACC,1.21,1.17,1.23,–,–
ACGGAA,1.5,1.63,1.85,1.53,–
TGGAAC,0.901,1.03,1.04,0.962,–
ATCCGT,0.89,0.946,0.952,0.944,0.975
CCGCTG,1.2,1.04,0.993,1.03,–
ATATTG,1.24,1.27,1.32,1.31,–
CCAAAC,1.15,1.06,1.02,–,–
CCGGTG,0.816,1.07,0.977,0.971,0.918

Sequence,binding signal [1],binding signal [2],binding signal [3],binding signal [4],binding signal [5]
TGGGAA,0.936,1,0.956,1.04,0.993
CGGATT,0.879,0.934,0.905,0.929,0.918
GTGGAT,0.898,0.878,0.895,0.858,0.919
AGGATA,0.95,0.998,0.933,0.989,0.964
CCCCGT,0.948,1.05,1,–,–
CTAGAA,0.998,1.01,0.937,1.28,–
CCCGCG,0.954,0.957,0.928,0.921,0.975
ATGGCG,0.956,1.13,0.96,0.965,1.06
ACTCAG,0.916,1.04,0.947,0.848,–
TCCTGC,1.36,1.63,1.6,1.43,–
AAGTGT,1.21,1.39,1.39,1.24,–
ATAAGA,1.11,1.07,1.1,1.14,–
TAACTA,1.26,1.31,1.24,1.38,1.32
AGTGAC,0.998,1.06,1.03,0.997,0.973
ATTCCT,1.22,1.32,1.28,1.2,1.42
ACGAGC,0.931,0.965,0.982,0.953,0.974
AACACT,1.29,1.26,–,1.21,–
CCAACT,1.27,1.17,1.21,–,1.25
CCCATC,1.3,1.28,1.18,–,1.12
ACCCAT,1.17,1.31,1.19,–,1.25
TGTTTC,1.55,1.88,–,1.86,–
TGCCCT,1.25,1.12,–,0.976,–
ACAAAC,1.08,1.11,1.12,–,1.12
TGGCGA,0.935,0.978,0.924,0.97,0.956

Sequence,binding signal [1],binding signal [2],binding signal [3],binding signal [4],binding signal [5]
CGGATC,0.867,0.989,0.971,0.877,0.921
TTATGC,1.33,1.37,–,1.16,–
TAGTGG,1.37,1.3,1.14,–,1.28
CCGCAG,0.991,1.09,0.961,1.12,1.01
GCCATT,1.07,0.975,0.994,–,0.949
TGCGCC,0.974,1.12,–,1.12,–
GCCCTC,1.1,1.2,1.18,–,1.17
GTACGA,1.04,1.08,0.999,0.899,1.08
GCGATA,1.07,1.08,0.969,0.917,0.999
CTAACC,1,1.2,1.16,–,1.12
TATATG,1.65,1.44,–,1.48,–
TCGGCT,0.945,0.947,0.978,0.951,0.917
AGCGCT,0.851,1.16,1.02,–,1.05
GGCCTC,1.17,1.16,–,1.12,–
AGTAAC,0.907,1.03,0.948,–,0.997
GTTAAA,1.04,0.981,0.96,1.09,0.992
TTCCAC,1.39,1.48,1.38,–,1.45
ATCCTT,1.77,1.61,–,1.56,–
TTCAGA,0.881,0.975,0.949,0.97,0.922
TCCGAA,1.23,1.24,–,1.36,–
ATAGAT,1.13,1.15,1.19,–,1.23
GGGAAA,0.89,0.948,0.958,–,0.949
ATTTTG,1.31,1.21,–,1.24,–
ACGTAC,1.24,1.2,1.18,1.16,1.16

Sequence,binding signal [1],binding signal [2],binding signal [3],binding signal [4],binding signal [5]
CTCCAA,1.23,1.26,1.33,–,1.3
TGTGGC,1.16,1.04,1.05,0.903,0.97
AGGGAA,0.849,0.88,0.951,0.929,0.911
TCATCA,1.26,1.19,–,1.23,–
TTAGAT,1.23,1.08,0.986,–,1.03
GTCCTT,1.15,1.25,–,1.14,1.26
TTTGCC,1.37,1.41,–,1.31,–
CTCTCG,1.41,1.45,–,1.36,–
ATCTAT,1.18,1.04,–,1.12,–
CGCCCC,1.06,1.24,–,1.28,–
TACATA,1.22,1.21,–,1.33,–
TTACAT,1.34,1.43,–,1.41,–
GAAACC,0.863,0.988,–,0.994,–
GTCTCT,1.18,1.31,–,1.16,–
ATGACC,1.54,1.62,–,1.42,–
GTATCA,1.12,1.05,–,0.965,–
AGGATG,0.922,1.01,–,0.993,0.919
ATTAGG,1.06,0.985,–,1.26,–
GTCCGG,0.85,0.956,–,0.873,0.853
CTAGGC,0.981,1.14,–,0.98,–
ATAATA,1.14,1.17,–,1.32,–
CAAGTA,0.989,1.12,–,1.14,–
GTTACC,0.984,1.08,–,0.971,–
ATGCGA,1.33,1.25,–,1.16,–

# Record cards, from the list above.
# ATGACC is listed as binding signal [1] = 1.54; binding signal [2] = 1.62; binding signal [4] = 1.42
# AGAACC is listed as binding signal [1] = 0.898; binding signal [2] = 0.894; binding signal [3] = 0.931; binding signal [4] = 0.933; binding signal [5] = 0.913
# AACACT is listed as binding signal [1] = 1.29; binding signal [2] = 1.26; binding signal [4] = 1.21
# CCGGTG is listed as binding signal [1] = 0.816; binding signal [2] = 1.07; binding signal [3] = 0.977; binding signal [4] = 0.971; binding signal [5] = 0.918

# The results go on.

Sequence,binding signal [1],binding signal [2],binding signal [3],binding signal [4],binding signal [5]
TGTATA,1.22,1.1,–,1.24,–
ACGACC,1.14,1.23,–,1.11,–
AATTAC,1.27,1.23,–,1.35,–
CGGATG,1.31,1.92,–,1.39,–
CGTACA,1.24,1.22,–,1.21,–
CGCCGG,0.99,1.06,–,0.99,1.03
GAACTG,0.956,1.04,–,0.953,–
TCTGCG,1.14,1.19,–,1.07,–
GTTGCT,1.33,1.26,–,1.27,–
TGCAAT,1.28,1.24,–,1.14,–
ATTAGT,1.2,1.05,–,0.956,–
AATGGA,0.824,1.07,–,0.934,–
TATGTG,1.17,1.09,–,1.07,–
AAATCG,0.974,1.06,–,0.96,0.975
GATACA,0.985,1.01,–,0.931,0.996
TCAGAT,0.948,1.06,–,0.933,–
CTATAG,1.14,1.04,–,1.03,–
ATATCT,1.2,1.24,–,1.23,–
CACGCG,1.24,1.27,–,0.995,–
CAAACT,1.15,1.14,–,1.23,1.17
CCCCAA,1.16,1.1,–,1.06,–
TGGATC,0.904,1.07,–,0.935,0.966
CAACAC,1.2,1.11,–,–,1.13
CCTTTT,1.58,1.6,–,–,1.52

# From paper PMC7862700
